No constants are given. Whether binding was seen depends on the method and setting. Some results given as binding are weak or reduced against the parent protein; the word gives no strength.
Columns and labels:
[1] = molecular target: Human CD45RABC Antigen (Fragment of Human CD45RABC Isoform) (human) (UniProt P08575); assay: statement in the epitope mapping example
[2] = molecular target: Human CD45RABC Antigen (Fragment of Human CD45RABC Isoform) (human) (UniProt P08575); assay: Octet binding experiments

Sequences of proteins named here, by UniProt entry; tags and fusion partners are left off. A change or cut given only in a name is not applied to a line headed by its entry.
UniProt P08575: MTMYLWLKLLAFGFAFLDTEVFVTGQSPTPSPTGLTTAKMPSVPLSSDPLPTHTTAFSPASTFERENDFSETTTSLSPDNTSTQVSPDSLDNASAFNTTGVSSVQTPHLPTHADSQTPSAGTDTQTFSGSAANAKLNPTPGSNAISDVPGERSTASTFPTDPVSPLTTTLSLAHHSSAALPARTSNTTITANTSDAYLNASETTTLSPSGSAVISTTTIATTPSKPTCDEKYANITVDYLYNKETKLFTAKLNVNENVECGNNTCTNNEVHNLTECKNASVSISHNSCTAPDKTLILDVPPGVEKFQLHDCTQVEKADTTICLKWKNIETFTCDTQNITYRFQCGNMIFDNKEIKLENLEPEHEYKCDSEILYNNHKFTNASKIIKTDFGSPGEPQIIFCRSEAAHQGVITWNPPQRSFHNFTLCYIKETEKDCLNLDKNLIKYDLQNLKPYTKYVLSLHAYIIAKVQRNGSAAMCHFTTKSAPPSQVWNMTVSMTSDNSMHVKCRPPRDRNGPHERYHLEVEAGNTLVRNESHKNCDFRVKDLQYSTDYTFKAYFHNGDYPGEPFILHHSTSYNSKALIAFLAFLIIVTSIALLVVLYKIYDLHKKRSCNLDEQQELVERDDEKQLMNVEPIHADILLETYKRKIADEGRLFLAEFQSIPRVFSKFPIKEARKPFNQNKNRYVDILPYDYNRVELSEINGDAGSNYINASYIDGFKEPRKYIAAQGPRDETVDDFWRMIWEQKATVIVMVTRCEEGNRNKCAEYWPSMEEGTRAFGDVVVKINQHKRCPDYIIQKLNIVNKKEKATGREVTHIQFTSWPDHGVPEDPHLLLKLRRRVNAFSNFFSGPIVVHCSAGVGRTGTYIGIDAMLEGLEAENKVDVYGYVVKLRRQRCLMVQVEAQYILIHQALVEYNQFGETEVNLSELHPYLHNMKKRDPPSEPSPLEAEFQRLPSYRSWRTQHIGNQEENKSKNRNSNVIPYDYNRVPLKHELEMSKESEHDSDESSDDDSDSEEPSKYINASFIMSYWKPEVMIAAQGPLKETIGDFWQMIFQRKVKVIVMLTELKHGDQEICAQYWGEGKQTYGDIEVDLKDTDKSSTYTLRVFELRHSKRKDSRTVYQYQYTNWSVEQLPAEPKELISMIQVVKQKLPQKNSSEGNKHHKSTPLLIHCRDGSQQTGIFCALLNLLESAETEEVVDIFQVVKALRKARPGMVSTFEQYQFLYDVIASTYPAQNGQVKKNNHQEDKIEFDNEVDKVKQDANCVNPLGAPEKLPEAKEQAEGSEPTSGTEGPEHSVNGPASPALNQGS

B1: AbA chimera (chimeric Antibody A, human IgG1) (antibody, V domains shown)
VH: EVQLVESGGDRVQPGRSLTLSCVTSGFTFNNYWMTWIRQVPGKGLEWVASISSSGGSIYYPDSVKGRFTISRDNAKNTLYLQMNSLRSEDTATYYCARDERWAGAMDAWGQGTSVTVSS
VL: DIQMTQSPPVLSASVGDRVTLSCKASQNINKNLDWYQQKHGEAPKLLIYETNNLQTGIPSRFSGSGSGTDYTLTISSLQPEDVATYYCYQHNSRFTFGSGTKLEIK
notes: also called chimeric AbA
binding [1]: binds

B2: AbA (rat anti-human CD45 monoclonal clone, before chimerisation) (antibody, V domains shown)
VH: EVQLVESGGDRVQPGRSLTLSCVTSGFTFNNYWMTWIRQVPGKGLEWVASISSSGGSIYYPDSVKGRFTISRDNAKNTLYLQMNSLRSEDTATYYCARDERWAGAMDAWGQGTSVTVSS
VL: DIQMTQSPPVLSASVGDRVTLSCKASQNINKNLDWYQQKHGEAPKLLIYETNNLQTGIPSRFSGSGSGTDYTLTISSLQPEDVATYYCYQHNSRFTFGSGTKLEIK
binding [2]: binds

B3: AbB (rat anti-human CD45 monoclonal clone, before chimerisation) (antibody, V domains shown)
VH: EVQLVESGGDLVQPGRSLKLSCIASGFTFTNFWMTWIRQVSGKGLEWVASISSSGGSIYYPDSVKDRFTISRDNAKNTLYLQMNSLRSEDTATYYCVKLHYYSGGGDAWGQGTSVTVSS
VL: DIQMTQSPSFLSASVGDRVTINCKASQNINKYLDWYQQKHGEAPKLLIHYTNNLHTGIPSRFSGSGSGTDYTLTISSLQPEDVATYFCLQHSSRWTFGGGTKLELK
binding [2]: binds

B4: AbC (rat anti-human CD45 monoclonal clone, before chimerisation) (antibody, V domains shown)
VH: EVQLVESGGDLVQPGRSLKLSCVASGFTFNNYWMTWIRQVPGKGLEWVASISSSGGSIYYPDSVKDRFTISRDNAKNTLFLQMNSLRSEDTATYYCARLYYYSGGGDAWGQGTSVTVSS
VL: DIQMTQSPSFLSASVGDRVTIICKASQDINKYLDWYQQKLGEAPKLLIYNTNNLHTGIPSRFSGSGSGTDYTLTISSLQPEDVATYFCLQHISRWTFGGGTKLELK
binding [2]: binds

Reference: patent US20210371524A1 (VOR BIOPHARMA, published 2021)
